This passage reports rescue activity (ATP increase) results from PubChem BioAssay AID624405 (Broad Institute, 2012).

Hit rate of the full screen: of about 1,900 compounds, about 250 (13%) were called active. About 4% were inconclusive and are not listed.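 How the source made its calls: active means fitted curve reaches 40% rescue activity at or below the top valid dose, in every test run; inconclusive means test runs disagree, some active and some inactive; inactive means every run misses the threshold or moves the wrong way.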 The list shows a part of the results, in another mix than the full data. Results with a measured potency or affinity are listed apart.

This experiment can be described thus: suppressors of statin myotoxicity in myotubes, dose response, cell-based, C2C12 myotubes, ATP luminescence, cherry pick (AID 624405).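 Further: myotubes are challenged with simvastatin at 10 µM to lower ATP.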 Conditions: C2C12 myotubes + simvastatin, 48 h; at 19.5 µM (top of the series).
For the compound `COC(=O)C1=C(c2ccc(OC)c(OC)c2)C[C@@H]2CC[C@H]1N2C(=O)NCCOc1ccc(OC)cc1`, the rescue activity (ATP increase) is inactive: 6%.
`CCCCC1(CN2CCCC2=O)C(=O)NC(=O)NC1=O`: the rescue activity (ATP increase) was inactive: 20.4%.
As to `CN(CC1COc2ccccc2O1)c1nc(-c2cccnc2)nc2ccccc12` (stereo unspecified), the rescue activity (ATP increase) is inactive: -52.4%.
Next, `COc1ccc(C(C)=O)cc1Cc1c(O)[nH]c(=S)[nH]c1=O`: inactive: -4.06%; `O=c1c2ccccc2nc(-c2ccco2)n1-c1ccccn1`: inactive: 20.1%; `Cc1cccc(NP(C)(=O)c2nc3c(s2)CCCC3)c1` (stereo unspecified): inactive: 26.8%.
Next, `CCN1CCN(C(=O)Cc2coc3cc(C)cc(C)c23)CC1`: inactive: 2.57%.
For the compound `CC12CN3CC(C)(CN(C1)C3c1cccnc1)C2=O` (stereo unspecified), the rescue activity (ATP increase) was inactive: -7.92%.
Next, `CCC1(Oc2ccccc2)C(=O)NC(=O)NC1=O`: inactive: -72.5%.
`CC#CP(=O)(OC)C(O)(CF)c1ccccc1` (stereo unspecified): the rescue activity (ATP increase) is inactive: -37.8%.
On to `CCN(CC)C(=O)c1ccc2c(c1)C1C=CCC1C(C(=O)O)N2` (stereo unspecified), for which the rescue activity (ATP increase) was inactive: 7.72%.
Turning to `O=C1C2CCCN2C(c2cccnc2)N1c1nccs1` (stereo unspecified), the rescue activity (ATP increase) was inactive: 7.38%.
For `CCOc1ccc(-n2c(CC)nc3ccccc3c2=O)cc1`, the rescue activity (ATP increase) is inactive: 0.662%.
As to `CC12CN3CN(C1)CC(c1ccccc1)(C3)C2=O`, the rescue activity (ATP increase) was inactive: -11.5%.
For `COC(=O)[C@H]1C[C@@H]1[C@H](NP(=O)(c1ccccc1)c1ccccc1)c1ccccc1`, the rescue activity (ATP increase) is inactive: 14.8%.
Next, `CN1CCN(c2nccc3c2ncn3C)CC1`: inactive: -26.9%; `CCC12CN3CC(CC)(CN(C1)C3c1cccnc1)C2=O` (stereo unspecified): inactive: 13.8%; `CCc1nc2ccccc2c(=O)n1-c1ccc2ccccc2c1`: inactive: 18.4%.
On to `C=COCCn1c(C)c(C(C)=O)c2cc(O)ccc21`, for which the rescue activity (ATP increase) was inactive: 1.46%.
Consider `O=C1/C(=C\c2ccccc2)C2OCC=C3CN4CCC56c7ccccc7N1C5C2C3CC46` (stereo unspecified), for which the rescue activity (ATP increase) was inactive: 26.3%.
On to `CN1C(=O)C(C2c3ccccc3C(=O)N2Cc2ccccc2)C(=O)N(C)C1=O` (stereo unspecified), for which the rescue activity (ATP increase) is inactive: 0.403%.
